Reference: PubChem BioAssay AID1487 (National Center for Advancing Translational Sciences (NCATS), 2009)
The list shows a part of the results. Shown are side measurements of this screen, not its main read-out; they come without a call. Compounds called inactive in the main read-out are mostly missing here. Potencies come from curve fits of mixed quality, noted in brackets.

Assay: qHTS Assay for Modulators of Lamin A Splicing
Conditions: HeLa LMNA splicing GFP/RFP minigene ratio, 48 h
Summary of the method: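 Read-out is the ratio of GFP to DsRed2 object intensity, acquired by 488 nm laser-scanning cytometry on HeLa lamin A-EGFP minigene reporter cells. Compound incubation 48 hrs at 37 °C in Opti-MEM with 2% FBS; DMSO 0.5% final.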

[1] = measured here: RFP viability control channel
[2] = measured here: GFP splicing reporter channel

| SMILES | AC50 [1] | AC50 [2] |
| --- | --- | --- |
| O=C(N/N=C/c1cccs1)C1CC(=O)N(c2ccccc2)C1 (configuration not stated) | 35.5 µM [falling, single point] | – |
| Cc1sc2ncnc(NCc3ccco3)c2c1C | – | 5.01 µM [rising, partial curve, poor fit] |
| Cc1nnc2sc(-c3ccc(-c4ccc(Cl)c(C(F)(F)F)c4)o3)nn12 | 0.0631 µM [rising, full curve, poor fit] | – |
| Cn1c(SCC(=O)N2CCc3ccccc32)nc2cccnc21 | 22.4 µM [rising, single point] | 14.1 µM [rising, single point] |
| Nc1ncnc2c1ncn2[C@@H]1O[C@H](COP(=O)(O)O)[C@@H](O)[C@@H]1O | 0.00398 µM [falling, full curve, poor fit] | 0.00355 µM [falling, full curve] |
| Fc1ccccc1/C=C1\CCCC2=C1NC(=S)NC2c1ccccc1F (configuration not stated) | – | 20 µM [falling, single point] |
| Cc1ccccc1CSCC(=O)NCc1ccco1 | – | 6.31 µM [falling, single point] |
| N#Cc1cccc(-c2nccc(NCc3cccs3)n2)c1 | 11.2 µM [falling, partial curve, poor fit] | – |
| COc1ccc(C)cc1-n1cnc2cc(C(=O)NC3CCCC3)ccc21 | 0.316 µM [falling, full curve, poor fit] | 7.94 µM [falling, partial curve] |
| Clc1cccc(-c2nn3c(Cn4cnc5ccccc54)nnc3s2)c1 | 22.4 µM [rising, single point] | 28.2 µM [rising, single point] |
| CCN(CC)c1nc(OCCNC(=O)Nc2ccccc2)nc(N(CC)CC)n1 | 20 µM [rising, single point] | – |
| O=C(Cn1cc2c(n1)CCCC2)NCc1cccnc1 | 0.251 µM [falling, full curve, poor fit] | 0.2 µM [falling, full curve] |
| CCCCn1cnc2cc(NCc3ccncc3)ccc21 | 20 µM [rising, single point] | – |
| C=CCNC(=S)Nc1nc2c(cc1C(=O)OCC)CCCC2 | 11.2 µM [rising, partial curve] | 7.94 µM [rising, partial curve] |
| O=C(CCCn1c(=S)[nH]c2ccc(Br)cc2c1=O)N1CCN(c2ccccn2)CC1 | 20 µM [falling, single point] | 12.6 µM [falling, single point] |
| CCOc1ccccc1C(=O)NC1CC2CCCC(C1)N2Cc1nnnn1Cc1ccco1 (configuration not stated) | 4.47 µM [rising, partial curve] | – |
| NC(=S)N/N=C/c1ccc(-c2cc(Cl)c(Cl)cc2Cl)o1 | 11.2 µM [falling, partial curve, poor fit] | 12.6 µM [falling, partial curve, poor fit] |
| COc1ccc(C2CC(c3ccc4ccccc4c3)=NN2C(=O)CN2C(=O)CCC2=O)cc1 (configuration not stated) | – | 14.1 µM [falling, partial curve, poor fit] |
| CCc1ccc(OCC(=O)NC(NC(=S)Nc2ccccc2C)C(Cl)(Cl)Cl)cc1 (configuration not stated) | 7.94 µM [rising, partial curve] | – |
| CCN(CC)CCNC(=O)c1sc2ncccc2c1-n1cccc1 | – | 0.00316 µM [falling, full curve, poor fit] |
| Cc1nc(/C=C/c2ccccc2)[nH]c(=O)c1-c1ccccc1 | 3.55 µM [rising, partial curve] | – |
| COc1cc2c(cc1OC)C1=C(C#N)CCC(=NC(=O)c3ccc(Cl)cc3)N1CC2 | 3.16 µM [rising, single point] | 3.98 µM [rising, full curve, poor fit] |
| CC(=O)Nc1ccc(SCC(=O)Nc2ccccc2-c2ccccc2)cc1 | 15.8 µM [rising, partial curve] | – |
| CC(=O)c1cccc(NC(=O)CN(Cc2ccccc2)S(C)(=O)=O)c1 | – | 15.8 µM [rising, single point] |
| COc1ccc(Oc2nc(-c3ccccn3)ncc2OC)cc1 | 8.91 µM [rising, partial curve] | – |
| O=C(NCCC(c1ccccc1)c1ccccc1)c1cnccn1 | 35.5 µM [rising, single point] | – |
| O=C(Nc1ccc([N+](=O)[O-])cc1)c1cc(-c2ccccn2)nc2c(Cl)cccc12 | 15.8 µM [falling, single point] | – |
| O=C(Nc1nc2ccc(C(=O)N3CCCCC3)cc2s1)C1CCCCC1 | 22.4 µM [falling, partial curve, poor fit] | 7.08 µM [falling, partial curve, poor fit] |

| SMILES | AC50 [1] | AC50 [2] |
| --- | --- | --- |
| Cc1onc(-c2ccccc2)c1C(=O)Nc1nnc(N2CCCCCC2)s1 | 20 µM [rising, partial curve, poor fit] | – |
| CN(C)c1ccc(C(=O)/C=C/c2ccco2)cc1 | 1 µM [rising, partial curve, poor fit] | – |
| COc1cccc(CN2CCNC(=O)C2CC(=O)NCc2cn3cccc(C)c3n2)c1OC (configuration not stated) | – | 0.794 µM [rising, single point] |
| COc1ccc(OCC(=O)NNC(=O)c2c(-c3ccccc3Cl)noc2C)cc1 | 0.0316 µM [rising, full curve, poor fit] | 0.02 µM [rising, full curve, poor fit] |
| OCCNc1c2ccccc2nc2ccccc12 | 15.8 µM [falling, partial curve, poor fit] | 2 µM [falling, partial curve] |
| COc1ccc(S(=O)(=O)N(C)c2ccc(OCC(=O)Nc3cc(C)on3)cc2)cc1 | 11.2 µM [rising, single point] | 11.2 µM [rising, single point] |
| CCN(CC)C(=O)N1CCN(Cc2ccc3c(c2)OCO3)CC1 | – | 5.01 µM [falling, single point] |
| CN(C)S(=O)(=O)c1cc(C(=O)NCCCn2ccc3ccccc32)ccc1Cl | – | 2.24 µM [rising, partial curve] |
| CCOC(=O)c1ccc(N2C(=O)c3n[nH]c(C)c3C2c2ccc(O)cc2)cc1 (configuration not stated) | 22.4 µM [rising, single point] | – |
| CCOC(=O)c1ccc(NS(=O)(=O)c2ccc3[nH]c4c(c3c2)CCCCC4)cc1 | 22.4 µM [falling, single point] | 15.8 µM [falling, single point] |
| O=C(NCc1ccco1)C(c1cccs1)N(Cc1ccccc1)C(=O)Cn1nnc2ccccc21 (configuration not stated) | 5.62 µM [rising, single point] | – |
| CCN(CC)S(=O)(=O)c1cc(C(=O)OCC(=O)c2ccc3c(c2)NC(=O)CO3)ccc1Cl | 10 µM [rising, partial curve] | 3.98 µM [rising, single point] |
| COc1ccc(C2CC(c3c(O)cc(C)oc3=O)=NCCS2)c(OC)c1 (configuration not stated) | 4.47 µM [rising, partial curve] | 15.8 µM [falling, partial curve, poor fit] |
| CCC(=O)c1c(O)cc(O)cc1O | – | 22.4 µM [falling, single point] |
| Fc1ccc(F)c(C2=NNC(=Nc3ccccc3F)SC2)c1 | 15.8 µM [rising, partial curve, poor fit] | 3.55 µM [rising, partial curve, poor fit] |
| O=C(Nc1nc(-c2ccccn2)cs1)c1ccc(Cl)s1 | 0.891 µM [rising, full curve] | – |
| Cc1ccc(C(=O)N2CCc3ccccc32)cc1NC(=O)c1ccco1 | 1.26 µM [falling, full curve] | – |
| COc1ccc(CNc2oc(-c3ccc(COc4ccc(OC)cc4)o3)nc2C#N)cc1 | 8.91 µM [rising, partial curve] | 5.01 µM [rising, full curve] |
| S=C(NCc1cccnc1)Nc1ccc(Cl)c(Cl)c1 | 12.6 µM [rising, partial curve] | 10 µM [rising, partial curve] |
| O=C(CSc1nc2ccncc2[nH]1)Nc1ccccc1C(F)(F)F | 15.8 µM [rising, partial curve] | 11.2 µM [rising, partial curve, poor fit] |
| Cc1c(NC(NC(=O)CC(C)C)C(Cl)(Cl)Cl)c(=O)n(-c2ccccc2)n1C (configuration not stated) | 0.0178 µM [falling, full curve] | 20 µM [falling, partial curve, poor fit] |
| OCC1O[C@H](O)C(Cl)C(O)C1O (some centres not stated) | 0.01 µM [rising, full curve, poor fit] | – |
| CCOC(=O)c1oc2ccccc2c1NC(=O)c1cccc(OC)c1OC | 35.5 µM [rising, single point] | – |
| COc1ccc(CCNc2cc(N3CCN(C(=O)c4ccc(C)cc4)CC3)ccc2[N+](=O)[O-])cc1OC | 0.794 µM [rising, full curve] | – |
| O=C(CSc1ccc2c(c1)OCCO2)Nc1ccc(Cl)cn1 | 35.5 µM [rising, single point] | 35.5 µM [rising, single point] |
| c1ccc2c(c1)OCC(c1csc3ncnc(N4CCOCC4)c13)O2 (configuration not stated) | 35.5 µM [falling, partial curve, poor fit] | – |
| Cc1ccc(-c2nn(-c3ccccc3)cc2C=C2C(=O)CC(C)(C)CC2=O)cc1 | – | 11.2 µM [falling, partial curve, poor fit] |

Part of the list above, reformatted:
COc1ccc(CCNc2cc(N3CCN(C(=O)c4ccc(C)cc4)CC3)ccc2[N+](=O)[O-])cc1OC
  AC50 [1]: 0.794 µM [rising, full curve]
O=C(CSc1ccc2c(c1)OCCO2)Nc1ccc(Cl)cn1
  AC50 [1]: 35.5 µM [rising, single point]
  AC50 [2]: 35.5 µM [rising, single point]
